{"source": "PubChem BioAssay AID652272 (Drosophila RNAi Screening Center, 2013)", "test": "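Genome-wide knock-down search for components of Hedgehog signalling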 (primary screen)", "cell system": "Drosophila clone 8 (Cl8) cells", "reagent": "long dsRNA against Drosophila genes", "measured": "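Plate reader light from a firefly reporter under a ptc promoter fragment that responds to Hedgehog, with Renilla light as transfection reference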", "direction": "firefly Hh reporter signal: higher = more ptc reporter light; Renilla reference signal: higher = more Renilla control light", "rule for the call": "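Hit when the z-score averaged over two replicates is under -2 or over +3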", "meaning of the calls": "active = hit: reporter lowered or raised; inactive = not a hit", "note": "In all, the deposit lists about 21,000 reagents; below is a random part of those with a known target gene and a result. Over the whole deposit, 503 (2.4%) were called active. 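Raw plate light values, not normalised; calls rest on replicate z-scores that were not deposited; hits include reporter decreases as well as increases.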 Names joined by + are all predicted targets of the reagent. No sequences are given here. Not stated in the record: the amount of reagent, the time to read-out."}
{"gene":"CG7044","dsRNA":"DRSC16180","firefly Hh reporter signal, replicate 1":7.14e5,"firefly Hh reporter signal, replicate 2":90451,"Renilla reference signal, replicate 1":36629,"Renilla reference signal, replicate 2":2512,"Outcome":"inactive"}
{"gene":"CG31869","dsRNA":"DRSC02582","firefly Hh reporter signal, replicate 1":1.14e5,"firefly Hh reporter signal, replicate 2":69908,"Renilla reference signal, replicate 1":3277,"Renilla reference signal, replicate 2":7106,"Outcome":"inactive"}
{"gene":"CG31869","dsRNA":"DRSC02674","firefly Hh reporter signal, replicate 1":1.41e5,"firefly Hh reporter signal, replicate 2":65350,"Renilla reference signal, replicate 1":3708,"Renilla reference signal, replicate 2":6661,"Outcome":"inactive"}
{"gene":"slp1","dsRNA":"DRSC00835","firefly Hh reporter signal, replicate 1":85464,"firefly Hh reporter signal, replicate 2":88163,"Renilla reference signal, replicate 1":3616,"Renilla reference signal, replicate 2":4000,"Outcome":"inactive"}
{"gene":"Hsp110","dsRNA":"DRSC11186","firefly Hh reporter signal, replicate 1":70119,"firefly Hh reporter signal, replicate 2":35772,"Renilla reference signal, replicate 1":3158,"Renilla reference signal, replicate 2":1904,"Outcome":"inactive"}
{"gene":"CG13527","dsRNA":"DRSC04169","firefly Hh reporter signal, replicate 1":90429,"firefly Hh reporter signal, replicate 2":60242,"Renilla reference signal, replicate 1":1936,"Renilla reference signal, replicate 2":5808,"Outcome":"inactive"}
{"gene":"CG14636","dsRNA":"DRSC12223","firefly Hh reporter signal, replicate 1":84234,"firefly Hh reporter signal, replicate 2":92327,"Renilla reference signal, replicate 1":3003,"Renilla reference signal, replicate 2":2809,"Outcome":"inactive"}
{"gene":"SkpE","dsRNA":"DRSC19431","firefly Hh reporter signal, replicate 1":99260,"firefly Hh reporter signal, replicate 2":2.57e5,"Renilla reference signal, replicate 1":2269,"Renilla reference signal, replicate 2":10738,"Outcome":"inactive"}
{"gene":"NELF-B","dsRNA":"DRSC17734","firefly Hh reporter signal, replicate 1":62400,"firefly Hh reporter signal, replicate 2":52451,"Renilla reference signal, replicate 1":2387,"Renilla reference signal, replicate 2":1680,"Outcome":"inactive"}
{"gene":"ple","dsRNA":"DRSC11383","firefly Hh reporter signal, replicate 1":29769,"firefly Hh reporter signal, replicate 2":29589,"Renilla reference signal, replicate 1":4520,"Renilla reference signal, replicate 2":2677,"Outcome":"inactive"}
{"gene":"Ada1-1 + Ada1-2","dsRNA":"DRSC01220","firefly Hh reporter signal, replicate 1":6.99e5,"firefly Hh reporter signal, replicate 2":2.61e5,"Renilla reference signal, replicate 1":41034,"Renilla reference signal, replicate 2":11225,"Outcome":"inactive"}
{"gene":"Ada1-1 + Ada1-2","dsRNA":"DRSC01222","firefly Hh reporter signal, replicate 1":4.83e5,"firefly Hh reporter signal, replicate 2":2.05e5,"Renilla reference signal, replicate 1":29010,"Renilla reference signal, replicate 2":8934,"Outcome":"inactive"}
{"gene":"Pp2B-14D","dsRNA":"DRSC20270","firefly Hh reporter signal, replicate 1":1.46e5,"firefly Hh reporter signal, replicate 2":71340,"Renilla reference signal, replicate 1":9316,"Renilla reference signal, replicate 2":3408,"Outcome":"active"}
{"gene":"CG13074","dsRNA":"DRSC09957","firefly Hh reporter signal, replicate 1":1.78e5,"Renilla reference signal, replicate 1":5875,"Renilla reference signal, replicate 2":4736,"Outcome":"inactive"}
